Holding throughout (experiment): co-IP
The target in test [1] is BRI1-GFP (Arabidopsis thaliana) (UniProt O22476).
The target in test [2] is BRI1^Q-GFP (BRI1^Y597M/Y599F/Y642A/M657E/F681A with C-terminal GFP) (Arabidopsis thaliana) (UniProt O22476).
The target of test [3] is BRI1^Q-mCit (BRI1^Y597M/Y599F/Y642A/M657E/F681A fused to mCitrine) (Arabidopsis thaliana) (UniProt O22476).

Protein sequences, listed by entry. Tags and fused reporters are not part of them. Lines headed by an entry give the natural chain unless they say otherwise; changes in a name come on top. Chains listed by the source or under a name are the forms on record and can include a tag or linker. Residues count along the entry.
BRI1-GFP (O22476, residues 24-1196): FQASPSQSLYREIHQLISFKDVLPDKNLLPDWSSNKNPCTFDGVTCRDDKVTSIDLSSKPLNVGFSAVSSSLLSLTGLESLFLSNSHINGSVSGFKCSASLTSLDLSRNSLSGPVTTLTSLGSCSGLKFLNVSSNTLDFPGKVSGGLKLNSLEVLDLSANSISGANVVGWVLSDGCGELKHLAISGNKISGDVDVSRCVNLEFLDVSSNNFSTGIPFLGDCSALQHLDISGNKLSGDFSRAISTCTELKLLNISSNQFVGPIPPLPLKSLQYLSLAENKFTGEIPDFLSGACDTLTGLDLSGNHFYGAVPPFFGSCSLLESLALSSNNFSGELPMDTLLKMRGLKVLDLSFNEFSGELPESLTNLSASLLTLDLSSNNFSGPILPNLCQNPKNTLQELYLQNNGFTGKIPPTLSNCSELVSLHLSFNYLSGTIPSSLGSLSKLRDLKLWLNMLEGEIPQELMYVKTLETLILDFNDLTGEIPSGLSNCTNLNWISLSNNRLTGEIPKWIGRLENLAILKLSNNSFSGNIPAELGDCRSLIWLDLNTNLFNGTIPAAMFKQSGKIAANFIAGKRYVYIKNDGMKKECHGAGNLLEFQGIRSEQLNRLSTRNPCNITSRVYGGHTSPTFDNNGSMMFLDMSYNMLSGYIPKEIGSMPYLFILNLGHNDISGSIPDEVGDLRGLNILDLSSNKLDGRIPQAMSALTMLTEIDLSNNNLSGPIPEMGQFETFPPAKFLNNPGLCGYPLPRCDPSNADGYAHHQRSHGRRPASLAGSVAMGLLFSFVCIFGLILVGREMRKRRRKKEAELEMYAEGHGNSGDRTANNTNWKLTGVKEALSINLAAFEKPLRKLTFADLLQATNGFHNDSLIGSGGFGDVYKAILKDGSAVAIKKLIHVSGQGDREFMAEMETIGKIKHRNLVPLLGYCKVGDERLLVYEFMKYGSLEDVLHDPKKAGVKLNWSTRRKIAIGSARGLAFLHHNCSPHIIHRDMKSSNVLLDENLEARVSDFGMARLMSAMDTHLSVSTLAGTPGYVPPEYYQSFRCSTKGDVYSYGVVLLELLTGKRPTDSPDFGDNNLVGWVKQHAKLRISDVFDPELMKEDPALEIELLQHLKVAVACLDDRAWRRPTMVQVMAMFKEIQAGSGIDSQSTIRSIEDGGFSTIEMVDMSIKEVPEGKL
BRI1^Q-mCit (BRI1^Y597M/Y599F/Y642A/M657E/F681A fused to mCitrine) (O22476, form named): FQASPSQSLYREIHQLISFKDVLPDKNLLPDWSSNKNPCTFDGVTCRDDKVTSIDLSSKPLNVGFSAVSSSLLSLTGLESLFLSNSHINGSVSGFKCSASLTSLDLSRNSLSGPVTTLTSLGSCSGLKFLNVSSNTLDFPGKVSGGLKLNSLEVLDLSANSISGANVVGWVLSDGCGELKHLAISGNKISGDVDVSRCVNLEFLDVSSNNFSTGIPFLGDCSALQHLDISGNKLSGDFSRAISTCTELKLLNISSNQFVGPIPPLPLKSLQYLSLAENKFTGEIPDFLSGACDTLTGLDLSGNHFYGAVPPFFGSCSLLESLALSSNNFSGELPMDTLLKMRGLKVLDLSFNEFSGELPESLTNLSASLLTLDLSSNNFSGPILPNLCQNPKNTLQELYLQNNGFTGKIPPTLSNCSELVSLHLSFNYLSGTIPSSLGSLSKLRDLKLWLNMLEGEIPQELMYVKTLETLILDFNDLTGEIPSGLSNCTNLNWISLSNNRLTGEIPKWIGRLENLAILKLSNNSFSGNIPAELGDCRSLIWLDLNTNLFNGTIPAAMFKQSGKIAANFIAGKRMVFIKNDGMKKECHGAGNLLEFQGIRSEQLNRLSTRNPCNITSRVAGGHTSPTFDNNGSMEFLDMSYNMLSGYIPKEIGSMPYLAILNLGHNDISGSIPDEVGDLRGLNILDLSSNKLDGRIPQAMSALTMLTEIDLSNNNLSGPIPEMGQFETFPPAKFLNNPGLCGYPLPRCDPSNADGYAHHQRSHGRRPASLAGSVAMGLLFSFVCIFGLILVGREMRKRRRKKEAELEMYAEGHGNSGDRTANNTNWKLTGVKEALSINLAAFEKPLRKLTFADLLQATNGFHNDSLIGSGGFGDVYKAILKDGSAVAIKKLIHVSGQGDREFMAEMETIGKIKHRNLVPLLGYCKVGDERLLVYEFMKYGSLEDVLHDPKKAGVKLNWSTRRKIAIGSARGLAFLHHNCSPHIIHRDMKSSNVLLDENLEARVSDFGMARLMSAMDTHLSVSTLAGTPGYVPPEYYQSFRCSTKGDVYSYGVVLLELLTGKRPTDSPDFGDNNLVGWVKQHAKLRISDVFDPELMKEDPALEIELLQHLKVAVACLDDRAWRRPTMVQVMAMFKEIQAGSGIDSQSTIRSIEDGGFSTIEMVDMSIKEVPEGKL

Results are given in words; binding and its absence hold for the method and conditions named. In cells and extracts the contact can be indirect. Some entries that bind do so weakly or less than the wild type. For part of these data: Sequences can lack the tags named with a protein.

B1: RLP44-RFP (RECEPTOR-LIKE PROTEIN44 fused to RFP) (receptor, UniProt Q9M2Y3 25-274)
chain: DPNDEACLKNLRQNLEDPASNLRNWTNSVFSNPCSGFTSYLPGATCNNGRIYKLSLTNLSLRGSISPFLSNCTNLQSLDLSSNQISGVIPPEIQYLVNLAVLNLSSNHLSGEITPQLALCAYLNVIDLHDNELSGQIPQQLGLLARLSAFDVSNNKLSGQIPTYLSNRTGNFPRFNASSFIGNKGLYGYPLQEMMMKSKGLSVMAIVGIGLGSGIASLMISFTGVCLWLRITEKKIVEEEGKISQSMPDY
With B1, the binding result in test [1] and in test [2] was “binds” in each case.

B2: BRI1-ASSOCIATED KINASE1 (BAK1) (receptor, UniProt Q94F62 26-615)
chain: NAEGDALSALKNSLADPNKVLQSWDATLVTPCTWFHVTCNSDNSVTRVDLGNANLSGQLVMQLGQLPNLQYLELYSNNITGTIPEQLGNLTELVSLDLYLNNLSGPIPSTLGRLKKLRFLRLNNNSLSGEIPRSLTAVLTLQVLDLSNNPLTGDIPVNGSFSLFTPISFANTKLTPLPASPPPPISPTPPSPAGSNRITGAIAGGVAAGAALLFAVPAIALAWWRRKKPQDHFFDVPAEEDPEVHLGQLKRFSLRELQVASDNFSNKNILGRGGFGKVYKGRLADGTLVAVKRLKEERTQGGELQFQTEVEMISMAVHRNLLRLRGFCMTPTERLLVYPYMANGSVASCLRERPESQPPLDWPKRQRIALGSARGLAYLHDHCDPKIIHRDVKAANILLDEEFEAVVGDFGLAKLMDYKDTHVTTAVRGTIGHIAPEYLSTGKSSEKTDVFGYGVMLLELITGQRAFDLARLANDDDVMLLDWVKGLLKEKKLEALVDVDLQGNYKDEEVEQLIQVALLCTQSSPMERPKMSEVVRMLEGDGLAERWEEWQKEEMFRQDFNYPTHHPAVSGWIIGDSTSQIENEYPSGPR
For the molecule B2, the binding entry in test [3] is given as “no binding”.

The values are drawn from article doi:10.1101/2022.07.11.499622.
